Measured data: PubChem BioAssay AID1224830 (NIAID, 2016)
In all, the deposit lists about 18,000 reagents; shown is an unselected part. Over the whole deposit, about 2,900 (16%) got an active call. 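Calls are made per well; low scores hint the gene aids the LPS response, high scores that it dampens it.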 Unmarked entries are inactive. Repeated entries: four replicate wells of each siRNA pool.

Purpose: 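Host factors that control LPS-induced TNF expression in human macrophages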 (primary screen)
Cell system: human THP-1 monocytic leukaemia cells, TNF dual-luciferase reporter clone, PMA-differentiated to macrophage-like cells
Knock-down reagent: siRNA pool against human genes, 50 nM
Duration: LPS for 4 h, given about 3 days after siRNA transfection
Conditions: bacterial LPS (TLR4 ligand), 10 ng/ml
Measurement: 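TNF firefly reporter luminescence divided by renilla, normalised to the plate median, then turned into a robust z-score for each replicate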
Direction: TNF reporter robust z-score: higher = stronger TNF reporter response to LPS
Call rule: 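Each well counts as active if its z-score is over 2.8 or under -1.5; controls are left without a call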

gene symbol,TNF reporter robust z-score
CDK4,0.08
CDK4,0.34
CDK4,-0.2
CDK4,0.27
KCNA5,-1.08
KCNA5,1.82
KCNA5,0.16
KCNA5,-0.52
RPLP2,-1.58 (active)
RPLP2,-1.66 (active)
RPLP2,-1.68 (active)
RPLP2,-1.16
L1CAM-AS1,-0.36
L1CAM-AS1,-0.33
L1CAM-AS1,-0.52
L1CAM-AS1,-0.74
TOP2B,-0.32
TOP2B,0
TOP2B,0.01
TOP2B,0.61
EHMT2,-1.08
EHMT2,-1.34
EHMT2,-1.37
EHMT2,-1.39
FNDC7,-0.23
FNDC7,0.42
FNDC7,1.32
FNDC7,-0.42
UNG,-0.34
UNG,-0.07
UNG,0.3
UNG,0.92
PHAF1,-0.06
PHAF1,0.53
PHAF1,0.22
PHAF1,2.33
KLF1,-0.81
KLF1,0.79
KLF1,-0.36
KLF1,-0.02
GAGE2E,1.99
GAGE2E,2.42
GAGE2E,1.44
GAGE2E,1.01
HPGDS,0.3
HPGDS,-0.51
HPGDS,-1.07
HPGDS,0.15
DCTN2,0.34
DCTN2,0.28
DCTN2,-0.48
DCTN2,0.62
ABCA3,1.35
ABCA3,0.49
ABCA3,1.1
ABCA3,0.7
MST1R,0.77
MST1R,-0.33
MST1R,-0.88
MST1R,0.05
KCTD8,0.1
KCTD8,0.03
KCTD8,0.15
KCTD8,1.91
AQP5,0.01
AQP5,0.85
AQP5,0.25
AQP5,0.54
KLHL21,1.47
KLHL21,0.2
KLHL21,0.46
KLHL21,0.78
CC2D2A,-0.11
CC2D2A,0.81
CC2D2A,0.89
CC2D2A,-0.27
ODAD4,-1.34
ODAD4,-0.25
ODAD4,-0.6
ODAD4,-1.56 (active)
C3orf62,0.11
C3orf62,0.84
C3orf62,1.27
C3orf62,0.9
WDR88,3.76 (active)
WDR88,1.9
WDR88,0.66
WDR88,-0.49
PIK3AP1,0.62
PIK3AP1,1.48
PIK3AP1,0.51
PIK3AP1,1.54
CLEC4G,1.98
CLEC4G,0.9
CLEC4G,-0.1
CLEC4G,0.31
TAS2R46,0.96
TAS2R46,0.54
TAS2R46,-0.65
TAS2R46,0.55
KCNK3,-0.16
KCNK3,1
KCNK3,0.16
KCNK3,2.6
ZNF596,1.79
ZNF596,-0.54
ZNF596,-0.9
ZNF596,-0.77
NSFL1C,-1.07
NSFL1C,-0.36
NSFL1C,-1.22
NSFL1C,-0.95
FKBP8,-1.06
FKBP8,1.27
FKBP8,1.88
FKBP8,1.18
FGF4,0.18
FGF4,0
FGF4,-0.05
FGF4,0.37
WDR17,-1.07
WDR17,-0.79
WDR17,-1.15
WDR17,-0.98
FMO3,-0.28
FMO3,0.6
FMO3,-0.37
FMO3,1.66
INO80E,1.42
INO80E,0.81
INO80E,0.17
INO80E,-0.26
TYMSOS,-2.12 (active)
TYMSOS,-0.92
TYMSOS,-1.7 (active)
TYMSOS,-1.4
ASNSD1,1.05
ASNSD1,2.01
ASNSD1,0.62
ASNSD1,1.49

Ordered by “TNF reporter robust z-score” (high to low): some entries from above.
gene symbol,TNF reporter robust z-score
FKBP8,1.88
FMO3,1.66
FKBP8,1.27
FKBP8,1.18
FMO3,0.6
FGF4,0.37
FGF4,0.18
FGF4,0
FGF4,-0.05
FMO3,-0.28
NSFL1C,-0.36
FMO3,-0.37
WDR17,-0.79
NSFL1C,-0.95
WDR17,-0.98
FKBP8,-1.06
WDR17,-1.07
WDR17,-1.15
NSFL1C,-1.22
